The text below walks through data of PubChem BioAssay AID248 (DTP/NCI, 2004).

For the experiment, the system named is L1210 leukemia ip in BDF1 mice, survival T/C. As to the kind of experiment: NCI In Vivo Anticancer Drug Screen. Data for tumor model L1210 Leukemia (intraperitoneal) in B6D2F1 (BDF1) mice. The note with it: higher T/C = longer survival.
Where [1] appears, read: T/C endpoint: mean survival time, dose: 400.0 mg/kg/injection, schedule: Q04DX003 (ip), vehicle: Klucel (hydroxypropylcellulose) (HPC).
Where [2] appears, read: T/C endpoint: mean survival time, dose: 150.0 mg/kg/injection, schedule: Q01DX001 (ip), vehicle: saline.
Where [3] appears, read: T/C endpoint: mean survival time, dose: 300.0 mg/kg/injection, schedule: Q01DX001 (ip), vehicle: saline.
The mark [4] stands for this setting: T/C endpoint: mean survival time, dose: 400.0 mg/kg/injection, schedule: Q04DX003 (ip), vehicle: saline with Tween-80.
Setting [5] is: T/C endpoint: mean survival time, dose: 100.0 mg/kg/injection, schedule: Q01DX009 (ip), vehicle: saline with Tween-80.
Setting [6] is: T/C endpoint: mean survival time, dose: 200.0 mg/kg/injection, schedule: Q01DX009 (ip), vehicle: saline with Tween-80.
[7] abbreviates: T/C endpoint: mean survival time, dose: 400.0 mg/kg/injection, schedule: Q01DX009 (ip), vehicle: saline with Tween-80.

Structures are written as SMILES. The list shows only some results of the screen, not a fair sample: it is rich in T/C values a quarter to a half above the control, in often repeated tests (any T/C) and in doses without a T/C. Other doses and runs of a compound stand elsewhere. T/C: endpoint of the treated group in % of that of the vehicle group. Some doses have a count of surviving animals in place of a T/C: the source holds a T/C of zero for them, seemingly a mark for toxic or unscored doses. Some survivor counts are full or nearly so, which does not show that the dose was tolerated: the source hardly ever lists a survival T/C far under the control, and the zero likely stands for such cases as well. Survivors were counted at the toxicity check, usually on the fifth day, unless a day is given; later deaths do not show. Schedules are NCI's codes, read here as Q, the interval in days (D) or hours (H), X, the number of doses. Some schedule codes hold Z or #, which are not explained here. For survival time, this PubChem deposit counts one and a half times the control or more as active, and values a quarter to a half above the control carry no call in these data; other NCI protocols may use other cut-offs. Some T/C values carry the count of animals alive at the toxicity check (mostly the fifth day); without a count, all were alive then.

With `O=[N+]([O-])c1ccc(C=C2C=c3ccccc3=C2)cc1`, the survivor count (T/C endpoint: mean survival time, dose: 100.0 mg/kg/injection, schedule: Q04DX003 (ip), vehicle: Klucel (hydroxypropylcellulose) (HPC)) was 6 of 6; the survivor count (T/C endpoint: mean survival time, dose: 200.0 mg/kg/injection, schedule: Q04DX003 (ip), vehicle: Klucel (hydroxypropylcellulose) (HPC)) is recorded as 6 of 6; the survivor count under setting [1] was 6 of 6.
Consider `COC(=O)C1C2CC3c4[nH]c5cc(OC)ccc5c4CCN3CC2CC(OC)C1OC` (stereo unspecified), for which the survivor count was 2 of 6 (T/C endpoint: mean survival time, dose: 12.5 mg/kg/injection, schedule: Q03HX024 (ip), vehicle: saline); 0 of 6 (T/C endpoint: mean survival time, dose: 64.0 mg/kg/injection, schedule: Q01DX009 (ip), vehicle: saline); 2 of 4 (T/C endpoint: mean survival time, dose: 100.0 mg/kg/injection, schedule: Q04DX003 (ip), vehicle: saline); 0 of 6 (T/C endpoint: mean survival time, dose: 128.0 mg/kg/injection, schedule: Q01DX009 (ip), vehicle: saline); 2 of 6 under setting [2]; 0 of 4 (T/C endpoint: mean survival time, dose: 200.0 mg/kg/injection, schedule: Q04DX003 (ip), vehicle: saline). For the same compound, the survivor count is 0 of 6 (T/C endpoint: mean survival time, dose: 256.0 mg/kg/injection, schedule: Q01DX009 (ip), vehicle: saline); 0 of 6 under setting [3]; 0 of 4 (T/C endpoint: mean survival time, dose: 400.0 mg/kg/injection, schedule: Q04DX003 (ip), vehicle: saline). Moreover, the T/C (T/C endpoint: mean survival time, dose: 25.0 mg/kg/injection, schedule: Q04DX003 (ip), vehicle: saline) was 142 % of control.
`CCOC(=O)c1c(C)c(-c2ccccc2F)nc2ccccc12`: the survivor count (T/C endpoint: mean survival time, dose: 400.0 mg/kg/injection, schedule: Q01DX001 (ip), vehicle: saline) was 3 of 6.
`Oc1c(CNCCCN2CCCC2)cc(Cl)c2cccnc12`: the survivor count (T/C endpoint: mean survival time, dose: 400.0 mg/kg/injection, schedule: Q04DX002 (ip), vehicle: saline) was 0 of 3.
On to `NC(=O)C[n+]1cccc(C(=O)Nc2ccc(Cl)cc2)c1`, for which the survivor count under setting [4] was 3 of 6.
With `NCCCNc1ccccc1`, the survivor count (T/C endpoint: mean survival time, dose: 400.0 mg/kg/injection, schedule: Q01DX009 (ip), vehicle: saline) was 0 of 6.
On to `Cn1c2ccccc2c2nn3cnnc3nc21`, for which, for the setting “T/C endpoint: mean survival time, dose: 400.0 mg/kg/injection, schedule: Q04DX002 (ip), vehicle: saline with Tween-80”, the survivor count is 2 of 3.
Regarding `CC1(c2ccc(Cl)s2)C(=O)N(Cl)C(=O)N1Cl` (stereo unspecified), the survivor count is recorded as 6 of 6 under setting [5], 1 of 6 under setting [6] and 2 of 6 under setting [4].
On to `CCC(CC)C1CC[N-]CC1.CCC(CC)C1CC[N-]CC1.N#C[S-].N#C[S-].[Cu]`, for which the survivor count by setting is: under setting [2], 0 of 6; under setting [3], 0 of 6.
For the compound `C1=C(c2ccccc2)N2CCN=C2S1`, the survivor count was 2 of 4 (T/C endpoint: mean survival time, dose: 100.0 mg/kg/injection, schedule: Q01DX001 (ip), vehicle: carboxymethylcellulose (CMC)); 0 of 4 (T/C endpoint: mean survival time, dose: 200.0 mg/kg/injection, schedule: Q01DX001 (ip), vehicle: carboxymethylcellulose (CMC)); 0 of 4 (T/C endpoint: mean survival time, dose: 400.0 mg/kg/injection, schedule: Q01DX001 (ip), vehicle: carboxymethylcellulose (CMC)).
On to `C=CCOCC(O)CN(CCC(C)C)CCC(C)C` (stereo unspecified), for which the survivor count by setting is: (T/C endpoint: mean survival time, dose: 200.0 mg/kg/injection, schedule: Q01DX009 (ip), vehicle: Klucel (hydroxypropylcellulose) (HPC)) 0 of 6; (T/C endpoint: mean survival time, dose: 400.0 mg/kg/injection, schedule: Q01DX009 (ip), vehicle: Klucel (hydroxypropylcellulose) (HPC)) 0 of 6; under setting [1], 1 of 6.
On to `CC1=NCCc2ccccc21`, for which the survivor count was 0 of 6 (T/C endpoint: mean survival time, dose: 100.0 mg/kg/injection, schedule: Q04DX003 (ip), vehicle: saline with Tween-80); 0 of 6 (T/C endpoint: mean survival time, dose: 200.0 mg/kg/injection, schedule: Q04DX003 (ip), vehicle: saline with Tween-80); 0 of 6 under setting [4].
As for `CN(C)c1ccc(N=NC#N)cc1`, the survivor count runs as follows: (T/C endpoint: mean survival time, dose: 12.5 mg/kg/injection, schedule: Q01DX009 (ip), vehicle: saline with Tween-80) 0 of 3; (T/C endpoint: mean survival time, dose: 25.0 mg/kg/injection, schedule: Q01DX009 (ip), vehicle: saline with Tween-80) 0 of 3; (T/C endpoint: mean survival time, dose: 50.0 mg/kg/injection, schedule: Q01DX009 (ip), vehicle: saline with Tween-80) 3 of 3; under setting [5], 0 of 3; under setting [6], 0 of 3.
As for `c1ccc([Si](c2ccccc2)(c2cccs2)c2cccs2)cc1`, the survivor count under setting [7] is recorded as 6 of 6.
In the case of `CN(C)c1ccc(/C=N\NC(=O)N/N=C/c2ccc(N(C)C)cc2)cc1`, the survivor count is recorded as 6 of 6 (T/C endpoint: mean survival time, dose: 200.0 mg/kg/injection, schedule: Q01DX001 (ip), vehicle: Klucel (hydroxypropylcellulose) (HPC)) and 6 of 6 (T/C endpoint: mean survival time, dose: 400.0 mg/kg/injection, schedule: Q01DX001 (ip), vehicle: Klucel (hydroxypropylcellulose) (HPC)).
As to `CN1CCN(Cc2nc3cccc4c3c([n+]2[O-])-c2ccccc2-4)CC1`, the survivor count under setting [7] is listed as 0 of 10.
In the case of `CCOC1=C(N2CC2)C(=O)C(OCC)=C(N2CC2)C1=O`, the T/C is, setting by setting: (T/C endpoint: mean survival time, dose: 0.63 mg/kg/injection, schedule: Q01DX Z (ip), vehicle: methylcellulose (MC)) 126 % of control; (T/C endpoint: mean survival time, dose: 1.1 mg/kg/injection, schedule: Q01DX Z (ip), vehicle: saline) 135 % of control; (T/C endpoint: mean survival time, dose: 1.25 mg/kg/injection, schedule: Q01DX Z (ip), vehicle: methylcellulose (MC)) 136 % of control; (T/C endpoint: mean survival time, dose: 1.7 mg/kg/injection, schedule: Q01DX Z (ip), vehicle: saline) 144 % of control; (T/C endpoint: mean survival time, dose: 2.0 mg/kg/injection, schedule: Q01DX Z (ip), vehicle: saline) 145 % of control; (T/C endpoint: mean survival time, dose: 2.5 mg/kg/injection, schedule: Q01DX009 (ip), vehicle: saline) 149 % of control. Moreover, the T/C (T/C endpoint: mean survival time, dose: 2.5 mg/kg/injection, schedule: Q01DX Z (ip), vehicle: methylcellulose (MC)) was 147 % of control [5 of 6 alive] and the T/C (T/C endpoint: mean survival time, dose: 5.0 mg/kg/injection, schedule: Q01DX009 (ip), vehicle: saline) was 137 % of control. Moreover, the survivor count (T/C endpoint: mean survival time, dose: 8.0 mg/kg/injection, schedule: Q01DX Z (ip), vehicle: saline) is reported as 4 of 6; the survivor count (T/C endpoint: mean survival time, dose: 10.0 mg/kg/injection, schedule: Q01DX009 (ip), vehicle: saline) is given as 6 of 6; the survivor count (T/C endpoint: mean survival time, dose: 10.0 mg/kg/injection, schedule: Q01DX Z (ip), vehicle: carboxymethylcellulose (CMC)) is 3 of 6; the survivor count (T/C endpoint: mean survival time, dose: 20.0 mg/kg/injection, schedule: Q01DX001 (ip), vehicle: saline) is reported as 2 of 6; the survivor count (T/C endpoint: mean survival time, dose: 20.0 mg/kg/injection, schedule: Q01DX009 (ip), vehicle: saline) is on record as 5 of 6; the survivor count (T/C endpoint: mean survival time, dose: 20.0 mg/kg/injection, schedule: Q01DX Z (ip), vehicle: carboxymethylcellulose (CMC)) is given as 0 of 6. In addition, the survivor count runs as follows: (T/C endpoint: mean survival time, dose: 40.0 mg/kg/injection, schedule: Q01DX001 (ip), vehicle: saline) 1 of 6; (T/C endpoint: mean survival time, dose: 75.0 mg/kg/injection, schedule: Q01DX001 (ip), vehicle: saline) 1 of 6; under setting [2], 0 of 6; under setting [3], 0 of 6.
For the compound `CC1(c2ccc3ccccc3c2)OCC2(CCC2)CO1`, where the note is “T/C endpoint: mean survival time, dose: 200.0 mg/kg/injection, schedule: Q04DX002 (ip), vehicle: Klucel (hydroxypropylcellulose) (HPC)”, the survivor count is 3 of 3.
Consider `Cc1c(N)nc([C@H](CC(N)=O)NC[C@H](N)C(N)=O)nc1C(=O)N[C@H](C(=O)N[C@H](C)[C@@H](O)[C@H](C)C(=O)N[C@H](C(=O)NCCc1nc(-c2nc(C(=O)NCCC[S+](C)C)cs2)cs1)[C@@H](C)O)C(OC1OC(CO)C(O)C(O)C1OC1OC(CO)C(O)C(OC(N)=O)C1O)c1cnc[nH]1` (stereo partly specified), for which the survivor count was 5 of 6 (T/C endpoint: mean survival time, dose: 250.0 mg/kg/injection, schedule: Q01DX009 (ip), vehicle: saline) and 5 of 6 (T/C endpoint: median survival time, dose: 32.0 mg/kg/injection, schedule: Q01DX009 (ip), vehicle: saline). Moreover, the T/C (T/C endpoint: median survival time, dose: 16.0 mg/kg/injection, schedule: Q01DX009 (ip), vehicle: saline) is 125 % of control.
Turning to `O=C(Nc1ccc(NC(=O)c2ccccc2)c2ccccc12)c1ccccc1`, the survivor count was 6 of 6 under setting [5], 6 of 6 under setting [6] and 6 of 6 under setting [7].
